In patent publication US6034097A, “Isoquinolines useful as analgesics” (Astra AB, priority 1996, dated 2000):

Experiment: In vitro stability in rat whole blood (RWB) at 37° C.
Type: in vitro ADME
Settings: extraction of supernatant, HPLC
Procedure: In vitro stability of the compounds of the invention in rat whole blood (RWB) at 37° C. and in kidney brush border protease (KBBP) at 37° C.
The compound was initially dissolved in water or in 10% methyl sulfoxide (DMSO)/water to make a stock solution of 10 mg/ml.
The stock solution was added to 15 ml of freshly harvested rat whole blood and incubated at 37° C.
Blanks were prepared without spiking with compounds in rat whole blood.
Aliquots were then taken at specific time intervals, centrifuged, and a fraction of the supernatant was extracted with acetonitrile or with a solution of acetonitrile and 10% acetic acid.
The solvent(s) was(were) removed by evaporation. The resulting residue was analyzed by HPLC.

SMILES	% Extraction Efficiency
Cc1cc(O)cc(C)c1C[C@H](N)C(=O)N1Cc2ccccc2C[C@H]1C(=O)NCC(O)Cc1ccccc1.O=C(O)C(F)(F)F (stereo partly drawn) [compound #4A, 2-S-(2-Amino-3-(4-hydroxy-2,6-dimethyl-phenyl)-propionyl)-1,2,3,4-tetrahydro-isoquinoline-3-S-carboxylic acid (2-hydroxy-3-phenyl-propyl)amide trifluoroacetic salt]	93.3% ± 0.87
Cc1cc(O)cc(C)c1CC(N)C(=O)N1Cc2ccccc2CC1C(=O)NCCCc1ccccc1.O=C(O)C(F)(F)F (stereo not shown) [compound #5B, 2-(2-Amino-3-(4-Hydroxy-2,6-dimethyl-phenyl)-propionyl)-1,2,3,4-tetrahydro-isoquinoline-3-carboxylic acid (3-phenyl-propyl)amide trifluoroacetic salt]	88.0% ± 0.4
Cc1cc(O)cc(C)c1CC(N)C(=O)N1Cc2ccccc2C[C@H]1C(=O)NCCCc1ccccc1.O=C(O)C(F)(F)F (stereo partly shown) [compound #5A, 2-(2-Amino-3-(4-Hydroxy-2,6-dimethyl-phenyl)-propionyl)-1,2,3,4-tetrahydro-isoquinoline-3-S-carboxylic acid (3-phenyl-propyl)amide trifluoroacetic salt]	97.4% ± 2.7
Cc1cc(O)cc(C)c1C[C@H](N)C(=O)N1Cc2ccccc2C[C@H]1C(=O)NCC(O)Cc1ccccc1.O=C(O)C(F)(F)F (stereo partly drawn) [4B, 2-S-(2-Amino-3-(4-hydroxy-2,6-dimethyl-phenyl)-propionyl)-1,2,3,4-tetrahydro-isoquinoline-3-S-carboxylic acid (2-hydroxy-3-phenyl-propyl)amide trifluoroacetic salt]	66.7% ± 4.13
